# Data as given in publication doi:10.1101/2025.07.16.664180.
# No constants are given. Whether binding was seen depends on the method and setting. Some results given as binding are weak or reduced against the parent protein; the word gives no strength. For some assays here: Where a sequence is shown, tags or fusion partners need not be part of it.
# B1: methionine sulfoxide reductase A (MSRA), wildtype, Myc-tagged, expressed in white adipocyte cultures (enzyme, UniProt Q9D6Y7 21-233)
# chain: MGDSASKVISAEEALPGRTEPIPVTAKHHVSGNRTVEPFPEGTQMAVFGMGCFWGAERKFWVLKGVYSTQVGFAGGHTRNPTYKEVCSEKTGHAEVVRVVYRPEHISFEELLKVFWENHDPTQGMRQGNDFGTQYRSAVYPTSAVQMEAALRSKEEYQKVLSKHNFGPITTDIREGQVFYYAEDYHQQYLSKNPDGYCGLGGTGVSCPMAIKK
# B2: recombinant wildtype MSRA (enzyme, UniProt Q9D6Y7 21-233)
# chain: B1 chain
# Experiments:
# [1] = molecular target: methionine sulfoxide reductase A (MSRA), wildtype, Myc-tagged, expressed in white adipocyte cultures (UniProt Q9D6Y7); assay: native gel or EMSA
# [2] = molecular target: recombinant wildtype MSRA (not stated (human or mouse cDNA cloned)) (UniProt Q9D6Y7); assay: SEC
Binder,binding [1],binding [2]
B1,binds,
B2,,binds
